This passage reports binding results from PMC3275592, “Structural and Functional Insights into Endoglin Ligand Recognition and Binding” (PLoS ONE, 2012).

The target in assay [1] is Endo338, endoglin orphan domain construct (residues 22-337) (human) (UniProt P17813). The experiment in a line: SEC; analytic Superdex 200 10/300 GL, calibrated with standards; buffer A (100 mM Tris-HCl pH 8, 150 mM NaCl); both purified. In general terms: In gel filtration, larger molecules generally elute earlier.
Assay [2] has the same target. The assay is described as follows: SAXS; Endo338 at 0.6 to 3.7 mg/ml, 25°C, ID14-3 BioSAXS beamline; molecular mass from I(0) through BSA calibration; both purified.
The target is the same in assay [3]. The experiment in a line: SDS-PAGE under reducing and non-reducing conditions with anti-His6 western blot; 10% SDS gel, 0.5 µg protein; with or without 10 mM DTT (1 h, 65°C); boiled at 95°C for 5 min; disulfide-linked dimer; both purified.

No constants are given. Whether binding was seen depends on the method and setting.

B1: Endo338, endoglin orphan domain construct (residues 22-337) (domain or fragment, UniProt P17813 22-337)
chain: TSLAETVHCDLQPVGPERGEVTYTTSQVSKGCVAQAPNAILEVHVLFLEFPTGPSQLELTLQASKQNGTWPREVLLVLSVNSSVFLHLQALGIPLHLAYNSSLVTFQEPPGVNTTELPSFPKTQILEWAAERGPITSAAELNDPQSILLRLGQAQGSLSFCMLEASQDMGRTLEWRPRTPALVRGCHLEGVAGHKEAHILRVLPGHSAGPRTVTVKVELSCAPGDLDAVLILQGPPYVSWLIDANHNMQIWTTGEYSFKIFPEKNIRGFKLPDTPQGLLGEARMLNASIVASFVELPLASIVSLHASSCGGRLQTS
modifications: Man5NAG2 glycans (5 modelled at their attachment sites)
As to B1, the binding entry in assay [1] was “no binding”; in assay [2] it was “no binding (tested: 0.6 to 3.7 mg/ml)”; in assay [3], “no binding”.
